# In the supplement of paper PMC10470496:
# Structures can show the parent of a compound that is named as a salt. This is one part of the list. Many values rest on one well or one pass, so single values are uncertain.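 The three strains are clinical Candida auris isolates from the CDC resistance isolate bank, from clades III, IV and I, grown in RPMI-1640 at 35°C. Growth is background-corrected OD600 relative to vehicle-only wells on the same plate; a hit meant over 50% inhibition in at least two strains plus a plate-corrected B-score above 0.1.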
# Assays:
# Assay in all cases: growth relative to vehicle control (OD600 ratio) (fraction); higher = less inhibition
# Settings in all cases: 24 h
# C. auris AR-384 = tested on: C. auris AR-384
# C. auris AR-386 = tested on: C. auris AR-386
# C. auris AR-387 = tested on: C. auris AR-387
Compound,growth (C. auris AR-384; 1 µM),growth (C. auris AR-384; 10 µM),growth (C. auris AR-386; 1 µM),growth (C. auris AR-386; 10 µM),growth (C. auris AR-387; 1 µM),growth (C. auris AR-387; 10 µM)
N[C@@H](CSCCCO)C(=O)O [Fudosteine],0.68,1.32,0.93,1.08,1.02,1.16
CC1=C(C(=O)OC(C)C)C(c2cccc([N+](=O)[O-])c2)C(C(=O)OC2CN(C(c3ccccc3)c3ccccc3)C2)=C(N)N1 (configuration not stated) [Azelnidipine],0.78,0.85,0.7,0.79,0.89,1.09
CC(C(=O)O)c1cccc(C(=O)c2ccccc2)c1 (configuration not stated) [Ketoprofen],0.85,0.58,0.83,1.08,0.84,0.72
CCOc1cc(N)c(Cl)cc1C(=O)NCC1CN(Cc2ccc(F)cc2)CCO1 (configuration not stated) [Mosapride Citrate],0.91,1.39,1.02,0.66,0.69,0.65
CCN[C@@H]1C[C@H](N)[C@@H](O[C@H]2OC(CN)=CC[C@H]2N)[C@H](O)[C@H]1O[C@H]1OC[C@](C)(O)[C@H](NC)[C@H]1O [Netilmicin Sulfate],0.58,0.72,0.87,0.95,0.65,0.85
Cc1nc(Nc2ncc(C(=O)Nc3c(C)cccc3Cl)s2)cc(N2CCN(CCO)CC2)n1 [Dasatinib Monohydrate],1.03,1.37,1.03,1,0.69,0.95
CC1(C)O[C@@H]2C[C@H]3[C@@H]4C[C@H](F)C5=CC(=O)C=C[C@]5(C)[C@@]4(F)[C@@H](O)C[C@]3(C)[C@]2(C(=O)CO)O1 [Fluocinolone Acetonide],0.96,1.22,1.06,1.29,1.18,1.18
COC(=O)[C@@H]1[C@H]2C[C@H]3c4[nH]c5ccccc5c4CCN3C[C@@H]2CC[C@@H]1O [Yohimbine HCl],0.93,1.25,1.13,1.42,1.36,1.49
N[C@@H](CCC(=O)N[C@@H](CS)C(=O)NCC(=O)O)C(=O)O [Glutathione],0.61,1.04,0.88,1.1,0.78,1.02
NC(=O)N1c2ccccc2C=Cc2ccccc21 [Carbamazepine],0.8,0.98,1.19,1.26,0.94,0.93
NC[C@H]1O[C@H](O[C@H]2[C@H](O)[C@@H](O[C@H]3O[C@H](CO)[C@@H](O)[C@H](N)[C@H]3O)[C@H](N)C[C@@H]2N)[C@H](N)C[C@@H]1O [Tobramycin],0.78,1.31,0.85,1.26,1.01,1.21
CC1(C)O[C@@H]2C[C@H]3[C@@H]4CCC5=CC(=O)C=C[C@]5(C)[C@H]4[C@@H](O)C[C@]3(C)[C@]2(C(=O)CO)O1 [Desonide],0.91,1.25,1.16,0.9,0.96,1.13
O=C(O)c1cc(-c2ccccc2)nc2ccccc12 [Cinchophen],0.77,0.74,0.88,1,0.77,0.81
C[C@@H]1COC(Nc2ccc3ncnc(Nc4ccc(OCc5nccs5)c(Cl)c4)c3c2)=N1 [Varlitinib],0.92,0.8,0.92,1.21,1.02,0.75
COC(=O)N[C@H](C(=O)N1CC2(CC2)C[C@H]1c1nc(-c2ccc3c(c2)C(F)(F)c2cc(-c4ccc5[nH]c([C@@H]6[C@H]7CC[C@H](C7)N6C(=O)[C@@H](NC(=O)OC)C(C)C)nc5c4)ccc2-3)c[nH]1)C(C)C [Ledipasvir (GS5885)],0.95,0.79,0.8,0.73,0.79,0.86
N=C(N)NCCC[C@H](N)C(=O)O [L-Arginine HCl (L-Arg)],0.9,0.78,0.98,0.66,1.12,1.09
O=C1CCC(N2C(=O)c3ccccc3C2=O)C(=O)N1 (configuration not stated) [Thalidomide],0.98,1.2,1.4,1.09,1.02,1.08
C[C@@H](Oc1cc(-c2cnn(C3CCNCC3)c2)cnc1N)c1c(Cl)ccc(F)c1Cl,0.69,1.07,1.16,1.06,1.02,1.02
NNc1nncc2ccccc12 [Hydralazine HCl],1.23,1.38,1.19,1.19,1.07,1.18
CO[C@H]1/C=C/O[C@@]2(C)Oc3c(C)c(O)c4c(c3C2=O)C2=NC3(CCN(CC(C)C)CC3)NC2=C(NC(=O)/C(C)=C\C=C\[C@H](C)[C@H](O)[C@@H](C)[C@@H](O)[C@@H](C)[C@H](OC(C)=O)[C@@H]1C)C4=O [Rifabutin],1.03,1.11,1.02,0.9,0.92,1.12
C[C@]12CC[C@@H]3c4ccc(O)cc4CC[C@H]3[C@@H]1CC[C@@H]2O [Estradiol],0.89,1.02,0.7,0.79,0.69,0.83
COc1ccc(O)cc1 [Mequinol],1.09,0.78,0.94,0.97,0.89,0.88
COC(=O)c1ccc2c(c1)NC(=O)/C2=C(\Nc1ccc(N(C)C(=O)CN2CCN(C)CC2)cc1)c1ccccc1 [Nintedanib (BIBF 1120)],1.22,0.76,0.56,0.87,0.95,0.96
CNC(=O)c1cc(Oc2ccc(NC(=O)Nc3ccc(Cl)c(C(F)(F)F)c3)c(F)c2)ccn1 [Regorafenib (BAY 73-4506)],1.01,1.38,1.15,0.58,0.88,0.78

Compound,growth (C. auris AR-384; 1 µM),growth (C. auris AR-384; 10 µM),growth (C. auris AR-386; 1 µM),growth (C. auris AR-386; 10 µM),growth (C. auris AR-387; 1 µM),growth (C. auris AR-387; 10 µM)
CC[C@@H]1C(=O)OC[C@@H]1Cc1cncn1C [Pilocarpine HCl],1.03,0.86,1.33,0.88,0.89,0.63
COc1cc2nc(N3CCN(C(=O)C4CCCO4)CC3)nc(N)c2cc1OC (configuration not stated) [Terazosin HCl Dihydrate],1.54,1.33,0.89,1.24,1.29,1.15
COC(=O)N[C@H](C(=O)N[C@@H](Cc1ccccc1)[C@@H](O)CN(Cc1ccc(-c2ccccn2)cc1)NC(=O)[C@@H](NC(=O)OC)C(C)(C)C)C(C)(C)C [Atazanavir Sulfate],0.55,0.58,0.53,0.86,0.67,0.67
Nc1ccc(O)c(C(=O)O)c1 [Mesalamine],0.89,1.26,1.22,1.15,1.19,1.39
CC(=O)OCC(=O)[C@@]12N=C(C)O[C@@H]1C[C@H]1[C@@H]3CCC4=CC(=O)C=C[C@]4(C)[C@H]3[C@@H](O)C[C@@]12C [Deflazacort],1.13,1.4,0.99,1.19,1.36,1.28
COc1ccc2c(c1)c(CC(=O)OCC(=O)O)c(C)n2C(=O)c1ccc(Cl)cc1 [Acemetacin],0.98,1.12,0.9,0.9,0.84,0.8
CCCNCC(O)COc1ccccc1C(=O)CCc1ccccc1 (configuration not stated) [Propafenone HCl],0.93,1,0.77,0.78,0.89,0.73
CC#C[C@]1(O)CC[C@H]2[C@@H]3CCC4=CC(=O)CCC4=C3[C@@H](c3ccc(N(C)C)cc3)C[C@@]21C [Mifepristone],0.88,0.99,1.13,1.06,0.82,1.19
CCC(=O)O[C@]1(C(=O)CCl)[C@@H](C)C[C@H]2[C@@H]3CCC4=CC(=O)C=C[C@]4(C)[C@@]3(F)[C@@H](O)C[C@@]21C [Clobetasol propionate],1.04,0.93,0.87,0.95,0.85,0.83
CC(=O)OCC(CCn1cnc2cnc(N)nc21)COC(C)=O [Famciclovir],1.29,1.09,0.9,0.93,0.9,1.05
CCc1cnn2c(NCc3ccc[n+]([O-])c3)cc(N3CCCC[C@H]3CCO)nc12,1.03,0.91,0.63,1.1,1,1.13
CNS(=O)(=O)C[C@H]1CC[C@H](N(C)c2[nH]cnc3nccc2-3)CC1 [Oclacitinib maleate],1.21,1.33,0.93,1.29,1.12,1.21
CCN(CC)CC#CCOC(=O)C(O)(c1ccccc1)C1CCCCC1 (configuration not stated) [Oxybutynin],0.56,0.41,0.97,0.64,0.79,0.69
CC(C)(Sc1cc(C(C)(C)C)c(O)c(C(C)(C)C)c1)Sc1cc(C(C)(C)C)c(O)c(C(C)(C)C)c1 [Probucol],0.9,1.18,0.98,0.45,0.71,0.62
NS(=O)(=O)c1ccc(C(=O)O)cc1 [Carzenide],1.19,1.09,1.02,1.17,0.95,0.92
Nc1ccc(C(=O)NCC(=O)O)cc1 [Sodium 4-aminohippurate Hydrate],1.07,1.07,1.13,1.14,0.91,1.24
O=C(O)c1cc(/N=N/c2ccc(O)c(C(=O)O)c2)ccc1O [Olsalazine Sodium],0.96,0.82,0.68,0.95,0.75,1.05
COc1cc2nccc(Oc3ccc(NC(=O)C4(C(=O)Nc5ccc(F)cc5)CC4)cc3)c2cc1OC [Cabozantinib malate (XL184)],0.75,0.78,0.79,0.85,0.74,0.76
CN(C)CCOC(C)(c1ccccc1)c1ccccn1 (configuration not stated) [Doxylamine Succinate],0.79,0.91,1.01,1.27,0.92,1.01
O=C1OC(CN2CCOCC2)CN1/N=C/c1ccc([N+](=O)[O-])o1 (configuration not stated) [Furaltadone HCl],0.9,0.99,1.01,1.35,1.05,1.32
Oc1ncnc2[nH]ncc12 [Allopurinol],0.81,0.97,0.81,0.64,0.8,1.12
CN(C)CCN(Cc1ccccc1)c1ccccn1 [Tripelennamine HCl],0.98,1.36,1.01,0.91,0.84,1.09
CC(C)[N+]1(C)[C@@H]2CC[C@H]1C[C@@H](OC(=O)C(CO)c1ccccc1)C2 (some centres not stated) [Ipratropium Bromide],0.79,1.33,1.35,1.21,1.55,1.41

# 14 structures from above, sorted by number of heavy atoms, descending.
Compound,growth (C. auris AR-384; 1 µM),growth (C. auris AR-384; 10 µM),growth (C. auris AR-386; 1 µM),growth (C. auris AR-386; 10 µM),growth (C. auris AR-387; 1 µM),growth (C. auris AR-387; 10 µM)
COC(=O)N[C@H](C(=O)N[C@@H](Cc1ccccc1)[C@@H](O)CN(Cc1ccc(-c2ccccn2)cc1)NC(=O)[C@@H](NC(=O)OC)C(C)(C)C)C(C)(C)C [Atazanavir Sulfate],0.55,0.58,0.53,0.86,0.67,0.67
CCN[C@@H]1C[C@H](N)[C@@H](O[C@H]2OC(CN)=CC[C@H]2N)[C@H](O)[C@H]1O[C@H]1OC[C@](C)(O)[C@H](NC)[C@H]1O [Netilmicin Sulfate],0.58,0.72,0.87,0.95,0.65,0.85
CC#C[C@]1(O)CC[C@H]2[C@@H]3CCC4=CC(=O)CCC4=C3[C@@H](c3ccc(N(C)C)cc3)C[C@@]21C [Mifepristone],0.88,0.99,1.13,1.06,0.82,1.19
CC1(C)O[C@@H]2C[C@H]3[C@@H]4CCC5=CC(=O)C=C[C@]5(C)[C@H]4[C@@H](O)C[C@]3(C)[C@]2(C(=O)CO)O1 [Desonide],0.91,1.25,1.16,0.9,0.96,1.13
COc1ccc2c(c1)c(CC(=O)OCC(=O)O)c(C)n2C(=O)c1ccc(Cl)cc1 [Acemetacin],0.98,1.12,0.9,0.9,0.84,0.8
CCN(CC)CC#CCOC(=O)C(O)(c1ccccc1)C1CCCCC1 (configuration not stated) [Oxybutynin],0.56,0.41,0.97,0.64,0.79,0.69
CCCNCC(O)COc1ccccc1C(=O)CCc1ccccc1 (configuration not stated) [Propafenone HCl],0.93,1,0.77,0.78,0.89,0.73
CC(C)[N+]1(C)[C@@H]2CC[C@H]1C[C@@H](OC(=O)C(CO)c1ccccc1)C2 (some centres not stated) [Ipratropium Bromide],0.79,1.33,1.35,1.21,1.55,1.41
O=C1OC(CN2CCOCC2)CN1/N=C/c1ccc([N+](=O)[O-])o1 (configuration not stated) [Furaltadone HCl],0.9,0.99,1.01,1.35,1.05,1.32
O=C(O)c1cc(-c2ccccc2)nc2ccccc12 [Cinchophen],0.77,0.74,0.88,1,0.77,0.81
Nc1ccc(C(=O)NCC(=O)O)cc1 [Sodium 4-aminohippurate Hydrate],1.07,1.07,1.13,1.14,0.91,1.24
N=C(N)NCCC[C@H](N)C(=O)O [L-Arginine HCl (L-Arg)],0.9,0.78,0.98,0.66,1.12,1.09
N[C@@H](CSCCCO)C(=O)O [Fudosteine],0.68,1.32,0.93,1.08,1.02,1.16
Oc1ncnc2[nH]ncc12 [Allopurinol],0.81,0.97,0.81,0.64,0.8,1.12
